According to US5721210A (priority 1995, dated 1998):

How the values were obtained:
[1] = general procedure: Boc solid-phase peptide synthesis; BOC-Ser(Bzl)OCH2-PAM resin; DCC (0.5M in DCM); BOP/DIEA for on-resin cyclization; details: whole synthesis, scale 0.75 mmol, acetate
[2] = general procedure: Boc solid-phase peptide synthesis; BOC-Cys(S-p-methylbenzyl)-Merrifield resin; BOC-Ser(Bzl)OCH2-PAM resin; 4-methylbenzhydrylamine resin; DCC (0.5M in DCM); BOP/DIEA for on-resin cyclization; details: whole synthesis, acetate

PEPTIDE1{C.G.R.G.D.S.P.C}$PEPTIDE1,PEPTIDE1,1:R3-8:R3$$$V2.0
crude mass [1]: 730 mg
final HPLC purity ([2]; HPLC, scale of the general procedure 0.75 mmol, 1.4 mmol, 1.6 mmol): 98.7%
isolated mass ([2]; scale 0.75 mmol): 92.9 mg

Some peptides are written in HELM: one residue between dots, names in brackets for other building blocks, links after the first $.
